For 6 molecules, binding results are on record in PMC3224144.

Chains of the proteins cited; added tags and fusions are not shown.
UniProt P03713: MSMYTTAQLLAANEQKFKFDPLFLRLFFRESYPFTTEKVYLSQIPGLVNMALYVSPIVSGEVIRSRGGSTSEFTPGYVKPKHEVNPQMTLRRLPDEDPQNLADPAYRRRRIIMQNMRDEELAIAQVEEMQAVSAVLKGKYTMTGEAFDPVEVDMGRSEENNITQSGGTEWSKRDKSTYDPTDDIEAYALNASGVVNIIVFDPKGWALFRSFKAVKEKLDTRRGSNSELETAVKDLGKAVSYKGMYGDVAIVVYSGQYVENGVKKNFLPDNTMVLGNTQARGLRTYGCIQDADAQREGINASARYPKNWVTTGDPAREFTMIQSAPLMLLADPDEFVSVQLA
UniProt P03711: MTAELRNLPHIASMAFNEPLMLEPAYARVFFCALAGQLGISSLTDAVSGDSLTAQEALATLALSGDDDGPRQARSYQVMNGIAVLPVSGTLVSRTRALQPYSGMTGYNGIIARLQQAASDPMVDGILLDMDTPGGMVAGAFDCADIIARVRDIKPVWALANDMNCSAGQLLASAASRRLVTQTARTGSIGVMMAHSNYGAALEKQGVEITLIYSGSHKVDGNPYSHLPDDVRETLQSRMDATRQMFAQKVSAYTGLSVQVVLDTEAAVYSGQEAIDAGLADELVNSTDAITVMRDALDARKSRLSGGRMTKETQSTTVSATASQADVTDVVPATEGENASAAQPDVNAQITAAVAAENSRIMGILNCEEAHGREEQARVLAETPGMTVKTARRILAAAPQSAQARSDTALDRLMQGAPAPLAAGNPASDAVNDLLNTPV

Common to all, as to assay: two-hybrid; array-based yeast two-hybrid screens; each protein as bait (Gal4 DNA-binding domain) and as prey (Gal4 activation domain), N- and C-terminal fusions; bait-prey vector pairs pDEST32-pDEST22, pGBKT7g-pGADT7g, pGBKT7g-pGADCg, pGBKCg-pGADCg, pGBKCg-pGADT7g; ten configurations a pair; positives retested
In assay [1] the target is major capsid protein E (bacteriophage lambda) (UniProt P03713).
The next assay concerns the target D (bacteriophage lambda) (UniProt P03712).
The target in assay [2] is C protease (bacteriophage lambda) (UniProt P03711).
Compound in assay [3]: T1, O (bacteriophage lambda) (UniProt P03688)
T1 sequence: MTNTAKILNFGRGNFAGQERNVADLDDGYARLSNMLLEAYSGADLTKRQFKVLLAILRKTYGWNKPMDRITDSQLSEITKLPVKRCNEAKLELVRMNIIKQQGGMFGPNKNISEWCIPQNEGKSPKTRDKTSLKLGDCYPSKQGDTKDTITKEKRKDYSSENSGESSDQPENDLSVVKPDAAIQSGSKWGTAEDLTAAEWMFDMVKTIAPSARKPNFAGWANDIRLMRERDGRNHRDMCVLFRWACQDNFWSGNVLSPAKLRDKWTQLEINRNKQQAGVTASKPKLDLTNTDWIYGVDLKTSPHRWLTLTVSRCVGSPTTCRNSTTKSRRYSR

Compound in assay [4]: T2, P (bacteriophage lambda) (UniProt P03689)
T2 sequence: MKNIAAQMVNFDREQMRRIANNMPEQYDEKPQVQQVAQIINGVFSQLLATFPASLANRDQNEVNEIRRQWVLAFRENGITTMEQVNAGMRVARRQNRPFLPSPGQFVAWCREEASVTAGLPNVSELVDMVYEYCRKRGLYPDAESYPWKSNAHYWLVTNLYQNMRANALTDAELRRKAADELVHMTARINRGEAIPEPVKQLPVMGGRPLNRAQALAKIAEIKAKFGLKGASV

Assay [5] concerns the target T3, NinD (bacteriophage lambda) (UniProt P03767).
T3 sequence: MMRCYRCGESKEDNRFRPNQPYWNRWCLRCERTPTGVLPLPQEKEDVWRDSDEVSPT

The target of assay [6] is T4, D (bacteriophage lambda), P03712.
T4 chain: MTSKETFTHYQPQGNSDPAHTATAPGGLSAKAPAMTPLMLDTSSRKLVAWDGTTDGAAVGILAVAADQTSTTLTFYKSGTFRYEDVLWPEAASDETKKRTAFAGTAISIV
The note with it: remark: other sources report otherwise.

Compound in assay [7]: CII (bacteriophage lambda) (UniProt P03042)
The target of assay [8] is T5, tape measure protein H (bacteriophage lambda) (UniProt P03736).
T5 sequence: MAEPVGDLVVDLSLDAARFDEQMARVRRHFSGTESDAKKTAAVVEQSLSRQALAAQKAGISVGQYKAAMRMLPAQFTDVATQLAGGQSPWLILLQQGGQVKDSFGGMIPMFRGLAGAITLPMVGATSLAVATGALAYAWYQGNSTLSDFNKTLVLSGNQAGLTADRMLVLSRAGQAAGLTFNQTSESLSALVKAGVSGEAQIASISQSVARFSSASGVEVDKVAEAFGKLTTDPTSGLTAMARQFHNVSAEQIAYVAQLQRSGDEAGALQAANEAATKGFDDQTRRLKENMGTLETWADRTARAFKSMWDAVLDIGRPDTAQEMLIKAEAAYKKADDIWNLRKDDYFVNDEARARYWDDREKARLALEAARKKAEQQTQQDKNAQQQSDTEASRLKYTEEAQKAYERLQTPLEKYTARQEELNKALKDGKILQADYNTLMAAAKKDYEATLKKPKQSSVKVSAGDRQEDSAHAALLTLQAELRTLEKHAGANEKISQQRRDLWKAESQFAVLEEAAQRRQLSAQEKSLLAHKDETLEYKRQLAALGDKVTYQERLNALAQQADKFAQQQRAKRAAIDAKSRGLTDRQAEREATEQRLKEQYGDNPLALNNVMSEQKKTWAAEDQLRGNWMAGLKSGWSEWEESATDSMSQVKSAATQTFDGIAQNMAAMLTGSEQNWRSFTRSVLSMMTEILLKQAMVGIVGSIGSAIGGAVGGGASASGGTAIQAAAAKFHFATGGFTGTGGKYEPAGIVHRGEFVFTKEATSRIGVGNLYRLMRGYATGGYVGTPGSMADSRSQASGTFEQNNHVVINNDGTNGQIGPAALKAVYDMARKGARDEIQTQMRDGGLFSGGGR

Results are given in words; binding and its absence hold for the method and conditions named. Some results given as binding are weak or reduced against the parent protein; the word gives no strength.

Regarding “major capsid protein E (from UniProt P03713 1-341)”, the binding entry (in assay [1]; with D (bacteriophage lambda)) was “binds” in each case.

On to C protease (from UniProt P03711 1-439), for which, in assay [2], the binding entry is recorded as “binds”.

B1: P (protein, UniProt P03689 1-233)
chain: MKNIAAQMVNFDREQMRRIANNMPEQYDEKPQVQQVAQIINGVFSQLLATFPASLANRDQNEVNEIRRQWVLAFRENGITTMEQVNAGMRVARRQNRPFLPSPGQFVAWCREEASVTAGLPNVSELVDMVYEYCRKRGLYPDAESYPWKSNAHYWLVTNLYQNMRANALTDAELRRKAADELVHMTARINRGEAIPEPVKQLPVMGGRPLNRAQALAKIAEIKAKFGLKGASV
For B1, in assay [3], the binding result is “binds”.

B2: antiterminator Q (protein, UniProt P03047 1-207)
chain: MRLESVAKFHSPKSPMMSDSPRATASDSLSGTDVMAAMGMAQSQAGFGMAAFCGKHELSQNDKQKAINYLMQFAHKVSGKYRGVAKLEGNTKAKVLQVLATFAYADYCRSAATPGARCRDCHGTGRAVDIAKTELWGRVVEKECGRCKGVGYSRMPASAAYRAVTMLIPNLTQPTWSRTVKPLYDALVVQCHKEESIADNILNAVTR
B2: the binding entry in assay [4] and in [5] was “binds” in each case.

B3: D, P03712 1-110 (protein)
chain: MTSKETFTHYQPQGNSDPAHTATAPGGLSAKAPAMTPLMLDTSSRKLVAWDGTTDGAAVGILAVAADQTSTTLTFYKSGTFRYEDVLWPEAASDETKKRTAFAGTAISIV
For B3, the binding result in assay [6] is “binds”.

B4: CII (protein, UniProt P03042 1-97)
chain: MVRANKRNEALRIESALLNKIAMLGTEKTAEAVGVDKSQISRWKRDWIPKFSMLLAVLEWGVVDDDMARLARQVAAILTNKKRPAATERSEQIQMEF
Consider B4, for which the binding result in assay [7] and in assay [8] was “binds” throughout.
